Values from PubChem BioAssay AID686937 (Drosophila RNAi Screening Center, 2013)
Assay: 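Knock-downs that reduce output of a secreted reporter enzyme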 (primary screen). Cells: Drosophila S2 cells expressing secreted horseradish peroxidase. Reagent: long dsRNA against Drosophila genes. Duration: about 5.5 days (5 days dsRNA, then 12 h reporter induction). Conditions: reporter expression induced after 5 days of dsRNA, read 12 h later; inducer not stated. Read-out: 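After 5 days of dsRNA and 12 h of reporter induction, medium peroxidase read by chemiluminescence and scored as per-plate z-score; higher values mean more reporter released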. Direction: z-score: higher = more reporter secreted into medium.
The deposit covers about 23,000 reagents; below is an unselected part of those with a known target gene and a result. 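Reduced-secretion tags in replicate 1 do not always agree with the z-scores; no criterion for assigning the tags was given.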 Further read-outs or replicates are left out here. Not stated in the record: the amount of reagent.

With knock-down of cid (GeneID 36495) [DRSC05429], the screen gave z-score, replicate 1 = -0.84.
For cid (GeneID 36495) [DRSC07592], the values are z-score, replicate 1 = 0.16.
CG32984 (GeneID 34218) [DRSC21602] gave z-score, replicate 1 = -0.64.
After knock-down of Octbeta1R (GeneID 42652) [DRSC16134], the screen gave z-score, replicate 1 = 0.03.
Against CG30105 (GeneID 246459) [DRSC05668], the entry reads z-score, replicate 1 = -0.07.
With knock-down of udt (GeneID 42809) [DRSC14214], the record shows z-score, replicate 1 = 0.58.
Depletion of Catsup (GeneID 48805) [DRSC03288] gave: z-score, replicate 1 = -1.02.
Against CG32320 (GeneID 317977) [DRSC21514] the deposit lists z-score, replicate 1 = 0.75.
Against CG32037 (GeneID 326183) [DRSC10363], the values are z-score, replicate 1 = 0.46.
With knock-down of CG8229 (GeneID 35898) [DRSC07114] the results were z-score, replicate 1 = 0.38.
Silencing of hrm (GeneID 35499) [DRSC04853] resulted in: z-score, replicate 1 = 0.23.
With knock-down of Mondo (GeneID 35402) [DRSC02667], the screen gave z-score, replicate 1 = 0.33.
Knock-down of Mondo (GeneID 35402) [DRSC02668] came out at: z-score, replicate 1 = -0.17.
Mondo (GeneID 35402) [DRSC22006] showed z-score, replicate 1 = 0.19.
Against resilin (GeneID 36880) [DRSC05627], the entry reads z-score, replicate 1 = 0.57.
After knock-down of resilin (GeneID 36880) [DRSC06595], the record shows z-score, replicate 1 = 0.48.
Against CG8405 (GeneID 36772) [DRSC05599], the values are z-score, replicate 1 = 0.38.
With knock-down of CG8405 (GeneID 36772) [DRSC07166], the screen gave z-score, replicate 1 = 0.02.
With knock-down of Zmynd8 (GeneID 43730) [DRSC15310], the record shows z-score, replicate 1 = -0.04.
With knock-down of ben (GeneID 32358) [DRSC20310], the record shows z-score, replicate 1 = 0.23.
For ben (GeneID 32358) [DRSC21261], the entry reads z-score, replicate 1 = 0.58.
Silencing of CtBP (GeneID 41602) [DRSC16617] gave: z-score, replicate 1 = 0.04.
For fz3 (GeneID 31023) [DRSC18779], the entry reads z-score, replicate 1 = 0.28.
With knock-down of CG14868 (GeneID 41875) [DRSC14991] the results were z-score, replicate 1 = -1.49.
Silencing of Tes (GeneID 36965) [DRSC06996] resulted in: z-score, replicate 1 = 0.08.
For CG5065 (GeneID 36860) [DRSC06912], the entry reads z-score, replicate 1 = 0.03.
Silencing of CG30148 (GeneID 37318) [DRSC06391] gave: z-score, replicate 1 = 0.74.
nom (GeneID 41038) [DRSC16389] scored z-score, replicate 1 = 0.27.
With knock-down of Gr92a (GeneID 117473) [DRSC21631], the record shows z-score, replicate 1 = 0.1.
With knock-down of CG43347 (GeneID 31991) [DRSC17982], the screen gave z-score, replicate 1 = -0.52.
With knock-down of CG43347 (GeneID 31991) [DRSC18446], the screen gave z-score, replicate 1 = -0.15; phenotype, replicate 1 = reduced secretion.
Depletion of CG43347 (GeneID 31991) [DRSC22656] resulted in: z-score, replicate 1 = -2.06; phenotype, replicate 1 = reduced secretion.
With knock-down of CG43347 (GeneID 31991) [DRSC22682], the screen gave z-score, replicate 1 = -0.4.
Wdr62 (GeneID 33367) [DRSC00081] gave z-score, replicate 1 = 0.33.
Against Wdr62 (GeneID 33367) [DRSC00082] the deposit lists z-score, replicate 1 = 0.53.
With knock-down of Wdr62 (GeneID 33367) [DRSC00701] the results were z-score, replicate 1 = -0.03.
Silencing of Wdr62 (GeneID 33367) [DRSC21913] resulted in: z-score, replicate 1 = 0.41.
Against Hem (GeneID 40462) [DRSC11865], the values are z-score, replicate 1 = 0.4.
With knock-down of CG33978 (GeneID 3885646) [DRSC17106], the screen gave z-score, replicate 1 = 0.8.
Ggamma30A (GeneID 45234) [DRSC02715] gave z-score, replicate 1 = 0.06.
Silencing of Ggamma30A (GeneID 45234) [DRSC03331] resulted in: z-score, replicate 1 = 0.13.
